Earlier results as cited in patent US20250302739A1, “LONG-ACTING INJECTABLE PHARMACEUTICAL COMPOSITIONS COMPRISING BIODEGRADABLE POLYMERS FOR DRUG DELIVERY” (Foresee Pharmaceuticals Co., Ltd., priority 2025, published 2025).
For some of these results: At least one structure is not confirmed: it was looked up by name or label, or the drawing left a doubt. Some results were stated once for a whole list of compounds, not compound by compound.

Amino acid sequences for entries named in this document (tags omitted). Residues count along the entry.
UniProt P14416, 1-414 isoform P14416-2: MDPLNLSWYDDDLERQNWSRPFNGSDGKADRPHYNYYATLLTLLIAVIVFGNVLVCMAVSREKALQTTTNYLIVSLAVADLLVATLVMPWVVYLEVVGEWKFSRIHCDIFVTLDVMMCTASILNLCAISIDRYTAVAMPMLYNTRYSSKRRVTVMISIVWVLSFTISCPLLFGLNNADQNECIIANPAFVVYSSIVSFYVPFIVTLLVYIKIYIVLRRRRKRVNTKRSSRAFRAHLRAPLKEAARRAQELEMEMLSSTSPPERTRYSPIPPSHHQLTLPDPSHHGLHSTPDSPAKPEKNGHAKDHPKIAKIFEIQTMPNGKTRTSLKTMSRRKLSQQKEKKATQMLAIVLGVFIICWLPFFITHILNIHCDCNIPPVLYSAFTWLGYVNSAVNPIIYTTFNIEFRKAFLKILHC
UniProt P34969, whole entry: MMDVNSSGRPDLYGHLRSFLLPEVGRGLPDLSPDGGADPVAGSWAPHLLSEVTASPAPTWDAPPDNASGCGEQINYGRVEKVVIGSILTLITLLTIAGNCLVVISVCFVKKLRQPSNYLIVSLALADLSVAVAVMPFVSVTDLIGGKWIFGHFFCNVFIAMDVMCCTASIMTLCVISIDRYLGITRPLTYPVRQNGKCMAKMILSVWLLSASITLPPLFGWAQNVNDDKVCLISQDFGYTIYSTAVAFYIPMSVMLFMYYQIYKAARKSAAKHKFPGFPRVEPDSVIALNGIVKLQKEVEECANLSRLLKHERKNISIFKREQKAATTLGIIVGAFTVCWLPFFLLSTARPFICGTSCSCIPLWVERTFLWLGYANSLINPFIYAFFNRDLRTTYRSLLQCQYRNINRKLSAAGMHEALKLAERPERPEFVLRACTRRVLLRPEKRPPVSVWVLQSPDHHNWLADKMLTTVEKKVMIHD

Tests used:
[1] = target: dopamine D2 receptor (Homo sapiens, UniProt P14416); conditions: first value of the D2/5-HT7 pair
[2] = target: serotonin 5-HT7 receptor (Homo sapiens, UniProt P34969); conditions: second value of the D2/5-HT7 pair
[3] = target: VMAT2 receptor; conditions: read-out: VMAT2 receptor binding affinity
[4] = target: dopamine, serotonin, and adrenergic receptors; conditions: read-out: off-target binding to dopamine, serotonin, and adrenergic receptors
[5] = target: dopaminergic, serotonergic, or adrenergic receptors; conditions: read-out: Ki, off-target binding affinity to dopaminergic, serotonergic, or adrenergic receptors

| SMILES | off-target binding affinity to dopamine D2 [1] | off-target binding affinity to serotonin 5-HT7 [2] | Ki [3] | Ki [4] | Ki [5] |
| --- | --- | --- | --- | --- | --- |
| COc1cc2c(cc1OC)[C@@H]1C[C@H](O)[C@@H](CC(C)C)CN1CC2 [2S,3S,11bS-HTBZ ((−)-α)] | 180 nM | 71 nM | – | – | – |
| COc1cc2c(cc1OC)[C@@H]1C[C@@H](O)[C@@H](CC(C)C)CN1CC2 [2R,3S,11bS-HTBZ ((−)-β)] | 53 nM | 5.9 nM | – | – | – |
| COc1cc2c(cc1OC)[C@H]1C[C@@H](OC(=O)[C@@H](N)C(C)C)[C@H](CC(C)C)CN1CC2 [valbenazine, (2R,3R,11bR)-3-Isobutyl-9,10-dimethoxy-1,3,4,6,7,11b-hexahydro-2H-pyrido[2,1-a]isoquinolin-2-yl L-valinate] | – | – | < 10 nM | > 1000 nM | > 5000 nM |
| COc1cc2c(cc1OC)[C@H]1C[C@H](O)[C@H](CC(C)C)CN1CC2 [(+)-(β)-HTBZ, (2S,3R,11bR)-3-isobutyl-9,10-dimethoxy-1,3,4,6,7,11b-hexahydro-2H-pyrido[2,1-a]isoquinolin-2-ol] | – | – | – | > 1000 nM | – |
| COc1cc2c(cc1OC)[C@H]1C[C@@H](O)[C@H](CC(C)C)CN1CC2 [(+)-(α)-HTBZ, (2R,3R,11bR)-3-isobutyl-9,10-dimethoxy-1,3,4,6,7,11b-hexahydro-2H-pyrido[2,1-a]isoquinolin-2-ol] | – | – | – | > 1000 nM | > 5000 nM |
